Taken from: PubChem BioAssay AID1259308 (NCATS, 2017)

Assay: 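Knock-downs that increase output of a recombinant reporter protein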 (primary screen)
System: human HEK293 embryonic kidney cells stably expressing firefly luciferase (HEK-CMV-Luc2-Hygro)
Reagent: single siRNA against human genes, 0.8 pmol siRNA per well
Timing: 72 h
Detection: 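Luciferase light (ONE-Glo) measured on one replicate plate set and viability (CellTiter-Glo) on the other, scaled to a negative control siRNA, with robust z-scores and luciferase per cell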
Scale: total luciferase, z-score: higher = more reporter protein produced
Active means: 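Active when the median/MAD z-score for overall luciferase is greater than 3; a gene was taken forward for validation with new siRNAs if at least two of its three siRNAs passed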
Calls: active = raised luciferase; inactive = no rise
This is a random part of about 59,000 reagents. About 1,510 of all reagents (2.6%) were called active. 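Calls use total luciferase alone and ignore viability, so some active siRNAs may act by altering cell number.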 Unmarked entries are inactive. Reagents against one gene are numbered here. Further read-outs or replicates are left out here. Reagent sequences are not shown.

After knock-down of F3 #1, the record shows total luciferase, z-score 1.14.
F3 #2 scored total luciferase, z-score 0.0218.
Against F3 #3 the deposit lists total luciferase, z-score 0.42.
With knock-down of ZNF566 #1, the record shows total luciferase, z-score 0.907.
ZNF566 #2 showed total luciferase, z-score -0.3.
Against ZNF566 #3, the entry reads total luciferase, z-score 0.776.
Knock-down of SLC25A45 #1 resulted in: total luciferase, z-score 0.187.
SLC25A45 #2 gave total luciferase, z-score 2.67.
After knock-down of SLC25A45 #3, the record shows total luciferase, z-score -0.12.

In a second layout: entries from further up.
target gene | reagent no. | total luciferase, z-score
SLC25A45 | 2 | 2.67
SLC25A45 | 3 | -0.12

The list goes on.
Knock-down of TBC1D17 #1 resulted in: total luciferase, z-score -0.138.
Depletion of TBC1D17 #2 came out at: total luciferase, z-score -0.536.
For TBC1D17 #3, the entry reads total luciferase, z-score 0.989.
Silencing of NDUFA13 #1 came out at: total luciferase, z-score -0.0369.
Against NDUFA13 #2, the entry reads total luciferase, z-score -1.01.
With knock-down of NDUFA13 #3 the results were total luciferase, z-score 0.705.
Knock-down of PLPP2 #1 gave: total luciferase, z-score -1.45.
Silencing of PLPP2 #2 came out at: total luciferase, z-score -3.39.
Silencing of PLPP2 #3 gave: total luciferase, z-score 0.0883.
Depletion of ZNF445 #1 came out at: total luciferase, z-score -0.103.
For ZNF445 #2 the deposit lists total luciferase, z-score -2.01.
ZNF445 #3 scored total luciferase, z-score -1.28.
